Data published in article PMC4294638.
Results are given in words; binding and its absence hold for the method and conditions named.

Molecular target: T1, Gerbich-type glycophorin C, endogenous, of Gerbich-negative human erythrocytes (human (endogenous in erythrocytes)) (UniProt P04921)
T1 sequence: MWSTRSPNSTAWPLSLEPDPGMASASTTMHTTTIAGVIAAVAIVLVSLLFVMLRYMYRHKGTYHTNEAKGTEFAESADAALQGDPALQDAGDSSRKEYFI
Assay: flow cytometry on cells; Region II (4 ug) incubated with 3x10^5 native, trypsin- or neuraminidase-treated human normal or Gerbich-negative erythrocytes in PBS pH 7.4, 2 h at 4°C; detected with rabbit anti-Region II serum and FITC anti-rabbit Ig; only the binder purified

recombinant, baculovirus-expressed Region II of P. falciparum EBA-140 ligand (domain or fragment)
binding: no binding (tested: 4 ug)
